Laboratory results as given in article PMC12154458, “High-Throughput Screens of Repurposing Hub and DOS Chemical Libraries Reveal Compounds with Novel and Potent Inhibitory Activity Against the Essential Non-Neuronal Acetylcholinesterase of Schistosoma mansoni (SmTAChE)” (International Journal of Molecular Sciences, 2025).

By UniProt entry, the sequences of proteins in these tests, tags left out. Residues count along the entry.
UniProt A0A3Q0KMM5, 27-661 limits assumed: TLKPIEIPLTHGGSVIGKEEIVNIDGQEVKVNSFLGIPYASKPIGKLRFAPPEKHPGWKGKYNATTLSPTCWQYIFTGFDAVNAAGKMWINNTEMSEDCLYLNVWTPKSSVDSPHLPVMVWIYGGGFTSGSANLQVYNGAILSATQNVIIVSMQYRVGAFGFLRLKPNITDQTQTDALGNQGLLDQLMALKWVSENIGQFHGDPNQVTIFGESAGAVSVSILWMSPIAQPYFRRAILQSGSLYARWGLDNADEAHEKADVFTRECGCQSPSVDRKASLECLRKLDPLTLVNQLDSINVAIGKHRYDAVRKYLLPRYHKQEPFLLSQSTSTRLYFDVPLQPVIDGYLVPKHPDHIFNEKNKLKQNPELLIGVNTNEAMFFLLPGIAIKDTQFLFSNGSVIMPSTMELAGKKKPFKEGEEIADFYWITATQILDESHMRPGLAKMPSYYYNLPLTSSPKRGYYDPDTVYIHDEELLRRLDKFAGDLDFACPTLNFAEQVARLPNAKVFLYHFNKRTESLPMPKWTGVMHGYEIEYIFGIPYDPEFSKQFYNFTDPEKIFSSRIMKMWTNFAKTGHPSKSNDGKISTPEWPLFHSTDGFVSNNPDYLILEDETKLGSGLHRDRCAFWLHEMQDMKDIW
UniProt P22303, 32-614: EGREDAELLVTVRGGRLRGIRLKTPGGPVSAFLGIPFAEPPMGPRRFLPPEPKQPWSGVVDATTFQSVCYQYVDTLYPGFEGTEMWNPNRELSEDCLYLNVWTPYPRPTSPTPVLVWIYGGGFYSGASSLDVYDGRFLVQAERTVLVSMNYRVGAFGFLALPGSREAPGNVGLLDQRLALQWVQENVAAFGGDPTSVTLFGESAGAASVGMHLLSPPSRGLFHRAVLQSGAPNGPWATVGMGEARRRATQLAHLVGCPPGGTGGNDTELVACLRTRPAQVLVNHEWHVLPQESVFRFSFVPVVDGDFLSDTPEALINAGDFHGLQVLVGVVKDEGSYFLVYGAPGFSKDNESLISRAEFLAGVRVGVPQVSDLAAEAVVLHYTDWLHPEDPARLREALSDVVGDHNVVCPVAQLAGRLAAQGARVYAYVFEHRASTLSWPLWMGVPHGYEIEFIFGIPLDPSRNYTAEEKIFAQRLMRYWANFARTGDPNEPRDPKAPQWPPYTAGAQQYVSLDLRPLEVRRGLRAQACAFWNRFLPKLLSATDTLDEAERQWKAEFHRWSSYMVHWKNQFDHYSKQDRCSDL

Experiments:
[1] = molecular target: T1, rSmTAChE (Schistosoma mansoni, UniProt A0A3Q0KMM5); test: biochemical; conditions: read-out: rSmTAChE HTS Inhibition (Ave, %)
[2] = molecular target: T1, rSmTAChE; format: biochemical
[3] = molecular target: recombinant human acetylcholinesterase, rHsAChE (Homo sapiens, UniProt P22303); test: biochemical

CCCCCCCCCCCCCCCC[n+]1ccccc1 [Cetylpyridinium chloride, reference compound]
inhibition at 20 µM [1]: 71%
Data Mode (curve class), rSmTAChE [2]: decreasing
Data Mode (curve class), rHsAChE [3]: decreasing
SI (Sm/Hs) [3]: 5.01
IC50 ([3]; IC50 (µM) rHsAChE): 1.47 µM
